In patent US20260217701A1, “SELECTIVE BET INHIBITORS AND USES THEREOF” (Tay Therapeutics Limited, priority 2022, published 2026):
Several values for one entry are separate records, joined by “and”; a condition that tells them apart may be missing. Identical values can stand only once. The source gives many values for each of these; only a part stands here.

Tested on: collagen-induced arthritis
Assay: Collagen-induced arthritis (CIA) model: clinical scores and paw volume; on Animal paw volume percent change (%): reference of the scale not given here
Format: in vivo, Lewis rats
Details: for Animal paw volume percent change (%) / Animal paw volume / clinical score (score, all limbs) / clinical score left hind limb / clinical score right hind limb / clinical score left forelimb / clinical score right forelimb: individual animals; for Overall Clinical Score: individual animals 1-8
[1] = group 6 CIA + Compound A 3 mg/kg, Day 18, 3 mg/kg
[2] = group 6 CIA + Compound A 3 mg/kg, Day 19, 3 mg/kg
[3] = group 6 CIA + Compound A 3 mg/kg, Day 20, 3 mg/kg
[4] = group 7 CIA + Compound A 10 mg/kg, Day 18
[5] = group 7 CIA + Compound A 10 mg/kg, Day 18, 10 mg/kg
[6] = group 7 CIA + Compound A 10 mg/kg, Day 19, 10 mg/kg
[7] = group 7 CIA + Compound A 10 mg/kg, Day 20, 10 mg/kg

`Cn1cc(-c2ccccc2)c(-c2cn(C)c(=O)c3[nH]c(-c4cnn(C(F)(F)F)c4)cc23)cc1=O` [Compound A, 6-methyl-4-(1-methyl-2-oxo-5-phenyl-1,2-dihydropyridin-4-yl)-2-(1-(trifluoromethyl)-1H-pyrazol-4-yl)-1,6-dihydro-7H-pyrrolo[2,3-c]pyridin-7-one] was tested, and the “Animal paw volume percent change (%)” value (Day 19, L paw, group 7 CIA + Compound A 10 mg/kg, 10 mg/kg) was 23.75% and 58.37% and 12.83% and 30.48% and 33.46% and 8.30% and 36.58% and 9.20%, the “Animal paw volume percent change (%)” value (Day 19, R paw, group 5 CIA + Compound A 1 mg/kg, 1 mg/kg) was 4.46% and the “Animal paw volume percent change (%)” value (Day 19, R paw, group 6 CIA + Compound A 3 mg/kg, 3 mg/kg) was 22.47% and 20.69% and 30.12%. For the same compound, the “Animal paw volume percent change (%)” value (Day 19, R paw, group 7 CIA + Compound A 10 mg/kg, 10 mg/kg) was 16.86% and 50.19% and 45.08% and 55.60% and 19.03% and 0.75% and 46.69% and 30.89%, the “Overall Clinical Score” value (Day 19, CIA + Compound A 3 mg/kg, 3 mg/kg) was 3 and the “Overall Clinical Score” value (Day 19, CIA + Compound A 10 mg/kg, 10 mg/kg) was 3 and 6 and 2 (2×) and 5 (3×) and 0. The Animal paw volume (Day 19, L paw, Group 5 (CIA + Compound A 1 mg/kg), 1 mg/kg) was 1.40 mL, the Animal paw volume (Day 19, L paw, Group 6 (CIA + Compound A 3 mg/kg), 3 mg/kg) was 1.59 mL and 1.68 mL and the Animal paw volume (Day 19, L paw, Group 7 (CIA + Compound A 10 mg/kg), 10 mg/kg) was 1.62 mL and 2.04 mL and 1.50 mL and 1.76 mL (2×) and 1.80 mL and 1.44 mL and 1.43 mL. The Animal paw volume (Day 19, R paw, Group 5 (CIA + Compound A 1 mg/kg), 1 mg/kg) was 1.41 mL, the Animal paw volume (Day 19, R paw, Group 6 (CIA + Compound A 3 mg/kg), 3 mg/kg) was 1.64 mL and 1.58 mL and 1.69 mL and the Animal paw volume (Day 19, R paw, Group 7 (CIA + Compound A 10 mg/kg), 10 mg/kg) was 1.53 mL and 1.93 mL and 1.92 mL and 2.09 mL and 1.60 mL and 1.35 mL and 1.89 mL and 1.70 mL. For the same compound, the “Animal paw volume percent change (%)” value (Day 21, L paw, group 5 CIA + Compound A 1 mg/kg, 1 mg/kg) was 5.20%, the “Animal paw volume percent change (%)” value (Day 21, L paw, group 6 CIA + Compound A 3 mg/kg, 3 mg/kg) was 23.22% and 19.47% and 20.69% and the “Animal paw volume percent change (%)” value (Day 21, L paw, group 7 CIA + Compound A 10 mg/kg, 10 mg/kg) was 23.75% and 66.15% and 14.34% and 52.79% and 33.83% and 8.30% and 41.25% and 9.20%. The “Animal paw volume percent change (%)” value (Day 21, R paw, group 5 CIA + Compound A 1 mg/kg, 1 mg/kg) was 5.20%, the “Animal paw volume percent change (%)” value (Day 21, R paw, group 6 CIA + Compound A 3 mg/kg, 3 mg/kg) was 26.22% and 20.69% and 30.12% and the “Animal paw volume percent change (%)” value (Day 21, R paw, group 7 CIA + Compound A 10 mg/kg, 10 mg/kg) was 16.86% and 68.48% and 45.08% and 66.04% and 22.01% and 0.75% and 55.25% and 31.66%. The “Overall Clinical Score” value (Day 21, CIA + Compound A 10 mg/kg, 10 mg/kg) was 3 (2×) and 6 (2×) and 4 and 0 and 5 and 2, the Animal paw volume (Day 21, L paw, Group 5 (CIA + Compound A 1 mg/kg), 1 mg/kg) was 1.42 mL and the Animal paw volume (Day 21, L paw, Group 6 (CIA + Compound A 3 mg/kg), 3 mg/kg) was 1.65 mL and 1.57 mL and 1.58 mL. For the same compound, the Animal paw volume (Day 21, L paw, Group 7 (CIA + Compound A 10 mg/kg), 10 mg/kg) was 1.62 mL and 2.14 mL and 1.52 mL and 2.06 mL and 1.80 mL and 1.44 mL and 1.82 mL and 1.43 mL, the Animal paw volume (Day 21, R paw, Group 5 (CIA + Compound A 1 mg/kg), 1 mg/kg) was 1.42 mL and the Animal paw volume (Day 21, R paw, Group 6 (CIA + Compound A 3 mg/kg), 3 mg/kg) was 1.69 mL (2×) and 1.58 mL. The Animal paw volume (Day 21, R paw, Group 7 (CIA + Compound A 10 mg/kg), 10 mg/kg) was 1.53 mL and 2.17 mL and 1.92 mL and 2.23 mL and 1.64 mL and 1.35 mL and 2.00 mL and 1.71 mL, the “clinical score (score, all limbs)” value [1] was 3 (2×) and 2 (5×) and the “clinical score left hind limb” value [1] was 0 (2×) and 1 (4×). For the same compound, the “clinical score right hind limb” value [1] was 1, the “clinical score (score, all limbs)” value [2] was 3 and the “clinical score left hind limb” value [2] was 1. The “clinical score (score, all limbs)” value [3] was 3, the “clinical score left hind limb” value [3] was 1 and the “clinical score right hind limb” value [3] was 2. For the same compound, the “clinical score left forelimb” value [4] was 0, the “clinical score right forelimb” value [4] was 0 and the “clinical score (score, all limbs)” value [5] was 2 (3×) and 6 and 3 and 0 and 4 and 1. For the same compound, the “clinical score left hind limb” value [5] was 1 (3×) and 3 and 0 (3×) and 2, the “clinical score right hind limb” value [5] was 1 (3×) and 3 and 2 (3×) and 0 and the “clinical score right forelimb” value (group 7 CIA + Compound A 10 mg/kg, Day 19) was 0. The “clinical score (score, all limbs)” value [6] was 3 and 6 and 2 (2×) and 5 (3×) and 0, the “clinical score left forelimb” value [6] was 0 (6×) and 1 (2×) and the “clinical score left hind limb” value [6] was 1 and 3 and 0 (3×) and 2 (3×). The “clinical score right hind limb” value [6] was 2 (5×) and 3 (2×) and 0, the “clinical score right forelimb” value (group 7 CIA + Compound A 10 mg/kg, Day 20) was 0 and the “clinical score (score, all limbs)” value [7] was 3 (2×) and 6 (2×) and 4 and 0 and 5 and 2. The “clinical score left forelimb” value [7] was 0 (7×) and 1, the “clinical score left hind limb” value [7] was 1 (2×) and 3 (2×) and 2 (2×) and 0 (2×) and the “clinical score right hind limb” value [7] was 2 (5×) and 3 (2×) and 0.
